# Assay: Theophylline pharmacokinetics in fifteen normal adult males from serum concentrations (Lagran), and dose calculated from measured Cl
# Format: in vivo, human
# Settings: mean of fifteen subjects; Q8; column G
# From the text: Fifteen normal adult males were used in the following study. Each subject was given a single intravenous dosage of theophylline.
# Serial blood samples were obtained, for all fifteen patients, from an intravenous catheter placed in the arm.
# F=1.0, assuming 100% oral absorption
smiles,measurement,value
Cn1c(=O)c2[nH]cnc2n(C)c1=O [theophylline],"Dose Calculation from Measured Cl, Dose/T, MEAN",251 mg/8 hour
